# Laboratory results published in article PMC12040169 (PLOS Biology, 2025).
# The other results are listed elsewhere or left out.
# Tested on: T1, CTL2-GFP (C. trachomatis L2/434/Bu, GFP-expressing)
# T1 construct: L2/434/Bu, GFP-expressing
# Set-up: species or system HeLa; Intracellular C. trachomatis growth in HeLa cells, bulk GFP fluorescence relative to DMSO
# Details: bulk GFP, single well; 28.5 h, 10 µM; inhibitor
row,Structure (SMILES),% of control remaining [%]
1,COc1ccc(-c2csc(NC(=O)C(C)C)c2C(=O)O)cc1 [CBK286622],133.192
2,FC(F)(F)c1ccc2c(c1)N(CCCN1CCN(C34CC5CC(CC(C5)C3)C4)CC1)c1ccccc1S2 [CBK261938],126.833
3,C=CCn1cc(CN2CCC(O)(c3ccccc3C)CC2)c(C)n1 [CBK282581],115.27
4,c1csc(CNc2cncc(-c3ccncc3)n2)c1 [CBK065238],104.82
5,CC(C)n1cccc1CN[C@@H]1CCC(=O)N[C@H]1c1cccc(F)c1 [CBK282908],100.952
6,COCCCNC(=O)Cn1c(-c2ccc(F)cc2)cc2cccnc21 [CBK285385],106.533
7,N#CCCn1cc(C(=O)n2nnc3ccccc32)c(-c2cc3ccccc3o2)n1 [CBK268073],105.165
8,COc1ccc(C(=O)OC(C)(C)C)c(-c2nccnc2N2CCCN(C)CC2)c1 [CBK037360],193.806
9,Cc1csc2ncc(C(=O)NCc3ccccc3)c(=O)n12 [CBK287290],92.2193
10,COc1ccc(S(=O)(=O)Nc2ccccc2C(=O)O)cc1C(=O)O [CBK264084],126.197
11,NC(=O)COc1cccc(/C=C2/SC(Nc3cccc(C(=O)O)c3)=NC2=O)c1 [CBK265027],97.969
12,Cn1c(C(=O)NC2CCOC(C)(C)C2)cc2ccccc21 (stereo not drawn) [CBK304344],120.098
13,CSCCC(=O)NCc1ccc(-c2csnn2)cc1 [CBK149304],115.963
14,C/C(=N\NC(=O)CCC(=O)Nc1ccc(I)cc1)c1ccc(O)cc1O [CBK261971],109.369
15,CCn1cnc2sc(-c3ccccc3)cc2c1=O [CBK287952],158.387
16,Cc1csc2[nH]c(C(C)(C)C)c[n+]12 [CBK025384B],106.481
17,CCn1c(N2CCC(C(=O)NC(C)C)CC2)nc2ccccc21 [CBK283982],134.012
18,O=C(NCc1nnc(-c2cccs2)o1)c1cccc(F)c1F [CBK284634],94.4752
19,N#CC1C(=S)NC2=C(CCCC2)C12CCCCC2 (stereo not drawn) [CBK288493],90.7956
20,OCCN(Cc1cccs1)Cc1c[nH]nc1-c1cccs1 [CBK282599],112.557
21,COc1cc(/C=C/CN2CCC(C(=O)NC(C)c3ccc(F)cc3)CC2)ccc1OC(C)=O (stereo not drawn) [CBK148061],100
22,CC(=O)N1CCc2c([nH]c3ccccc23)[C@@]12CCN(Cc1ccc(F)cc1)C2 [CBK074955],119.257
23,Cc1nc2c(c(=O)[nH]1)CCN(Cc1cccc(Oc3ccccc3)c1)C2 [CBK283989],127.907
24,Cc1c(CN2CCC3(CC2)CC(c2ccccc2)CN(C)C3)cnn1C (stereo not drawn) [CBK306666],122.75
25,Cc1ccc(N(C(C)C(=O)Nc2ccccc2C(F)(F)F)S(C)(=O)=O)cc1 (stereo not drawn) [CBK268796],117.205
26,O=C(NCc1ccncc1)c1ncoc1-c1ccc(F)cc1 [CBK282354],150.479

row,Structure (SMILES),% of control remaining [%]
1,COc1ccccc1OCCOc1c(Cl)cc(/C=C2\SC(=S)NC2=O)cc1Cl [CBK264848],129.637
2,CCn1c(=O)n(CC(=O)NCc2ccccc2F)c2cccnc21 [CBK283890],119.652
3,O=C1N(Cc2cccc3ccccc23)c2ccccc2C1(c1ccc(O)cc1)c1ccc(O)cc1 [CBK261410],67.1065
4,O=C(N[C@@H](Cn1cc(Cl)c(=O)[nH]c1=O)C(=O)O)C1CCCC1 [CBK289658],133.063
5,O=C(O)CCN1C(=O)c2ccc(Oc3ccc(NC(=O)c4ccc(Cl)c(Cl)c4)cc3)cc2C1=O [CBK267400],136.843
6,CCC(=O)N1CCCc2cc(C(O)CN3CCCC(C)C3)ccc21 (stereo not drawn) [CBK283049],119.959
7,Cc1cccc(C(=O)Nc2cccc(OCC(=O)O)c2)c1 [CBK268599],107.096
8,CCCNC(=O)CN1CCC(NC(=O)Cn2cc(Br)ccc2=O)CC1 [CBK305665],89.9022
9,O=C(O)CC1SC(Nc2cccc(Cl)c2)=NC1=O (stereo not drawn) [CBK131683],117.051
10,OC(CN1CCN(C(c2ccccc2)c2ccccc2)CC1)Cn1c2ccccc2c2ccccc21 (stereo not drawn) [CBK262730],56.5945
11,O=C(CCn1cccn1)NC(Cc1ccsc1)c1cccnc1 (stereo not drawn) [CBK285393],123.778
12,Cc1cc(NC(=O)c2nn3c(C(F)(F)F)cc(-c4ccccc4)nc3c2Cl)nn1CC(=O)N1CCOCC1 [CBK268209],85.0568
13,Clc1ccc(COc2cccc3cccnc23)cn1 [CBK002718],91.7888
14,CN(C)CCN(C)C(=O)c1ccc(-c2ccco2)nc1N(C)C [CBK106078],113.687
15,COc1ccc(CN(CCN(C)C)C(=O)NCc2ccc(Cl)cc2)cc1OC [CBK159303],126.874
16,O=C(NC[C@H]1O[C@@H](CC(=O)N2CCN(c3ccccc3)CC2)[C@H](O)[C@@H]1O)c1ccccc1 [CBK288920],110.423
17,O=C(NCCCN1CCCC1)Nc1ccccc1[N+](=O)[O-] [CBK267959],137.399
18,Cc1cc2c(N3CCN(Cc4nc5ccccc5[nH]4)CC3)ncnc2s1 [CBK268213C],88.7485
19,CC(C)[C@H](CO)Nc1nc(-c2ccc(N3CCOCC3)cc2)cn2ccnc12 [CBK066151],109.613
20,CCCNc1nc(-c2ccc(F)c(F)c2)cn2ccnc12 [CBK066573],187.771
21,N#Cc1ccccc1N1CCN(c2cncc(-c3cccs3)n2)CC1 [CBK065656],125.308
22,CCOc1ccc(NC(=O)C2CCC(C)(C(=O)O)C2(C)C)cc1 (stereo not drawn) [CBK295665],141.158
23,CC(C)c1cccc2c1OC(C(C)C)C(=O)N2 (stereo not drawn) [CBK009286],113.234
24,CN(C)C(=O)c1ccc(-c2ccc(COC3CCN(C(=O)Cc4ccc(F)cc4)CC3)c(S(C)(=O)=O)c2)cc1 [CBK155963],106.293
25,Nc1nc(SCC(=O)NCc2ccc3c(c2)OCO3)n[nH]1 [CBK266580],167.117
26,O=C(N/N=C/c1cccnc1)c1cccc(F)c1 [CBK261689],95.0197

# Shown with bars between the fields: part of the list above.
row | Structure (SMILES) | % of control remaining [%]
10 | OC(CN1CCN(C(c2ccccc2)c2ccccc2)CC1)Cn1c2ccccc2c2ccccc21 (stereo not drawn) [CBK262730] | 56.5945
11 | O=C(CCn1cccn1)NC(Cc1ccsc1)c1cccnc1 (stereo not drawn) [CBK285393] | 123.778
12 | Cc1cc(NC(=O)c2nn3c(C(F)(F)F)cc(-c4ccccc4)nc3c2Cl)nn1CC(=O)N1CCOCC1 [CBK268209] | 85.0568

# Continuation:

row,Structure (SMILES),% of control remaining [%]
1,COc1nccnc1OC1CCN(Cc2ccc(Cl)cc2)CC1 [CBK084240],87.8614
2,NS(=O)(=O)c1ccc(NC(=O)CC2SC(=O)NC2=O)cc1 (stereo not drawn) [CBK263855],96.6684
3,COc1nccnc1N1CCN(CCOc2ccccc2)CC1 [CBK084230],87.197
4,CCCC/C=C/c1cnc2[nH]c(=O)n(Cc3cccs3)c2n1 [CBK064373],166.045
5,Cc1c(C(=O)N(C)Cc2csc(Br)c2)nnn1C1CCNCC1 [CBK304491],112.651
6,O=C(CS(=O)(=O)c1ccccc1)N1CCN2C(=O)N(C3CCCCC3)C(=O)[C@H]2C1 [CBK289580],105.943
7,O=c1cc(CO)oc(CN2CCCCCC2)c1O [CBK288363],128.759
8,O=C(N[C@H]1C[C@@H]2C(=O)N[C@H]3CCN(C(=O)Cc4cccs4)[C@@H]3C(=O)N2C1)C1CCC1 [CBK289269],92.6101
9,C[N+](C)(C)CCC(=O)CCC(=O)O [CBK262012I],100
10,COc1ccc(NC(=O)C(C)Sc2nc(N)cc(O)n2)cc1 (stereo not drawn) [CBK265699],122.24
11,Cc1sc(NC(=S)NC(=O)COc2ccc(Br)cc2Cl)c(C(N)=O)c1C [CBK266127],150.835
12,COc1ccccc1CC(C)NC(=O)CC1CCN(c2nc(C)cc(C)n2)CC1 (stereo not drawn) [CBK285956],109.826
13,Cc1[nH]c(=O)[nH]c(=O)c1CC(=O)NCC1CCN(c2ccccc2F)C1 (stereo not drawn) [CBK304325],115.127
14,COc1ccc(C(=O)N2CCC3(CCCN(CCN4C(=O)c5ccccc5C4=O)C3)C2)cc1OC (stereo not drawn) [CBK132862],74.0043
15,O=C(CSc1nnc(-c2ccncc2)[nH]1)c1ccc(O)c(O)c1 [CBK264346],117.954
16,O=C(O)c1ccc2c(c1)C(=O)N(c1cccnc1)C2=O [CBK287173],111.051
17,Cc1cc(-c2cn3cc(C(=O)N4CCCCC4)nc3c(=O)n2C)c(C)o1 [CBK306890],183.353
18,CCOc1cc(NC2CCN(C(=O)C3CCCCC3(C)C)CC2)ncn1 (stereo not drawn) [CBK305505],80.0952
19,O=C(Nc1ccc(OC(F)(F)F)cc1)Nc1cc(-c2cccs2)n[nH]1 [CBK020563],16.102
20,Nc1ccc(-c2nc3cc(C(=O)c4ccc5[nH]c(-c6ccc(N)cc6)nc5c4)ccc3[nH]2)cc1 [CBK262848],105.733
21,O=S(=O)(NC1CCN(Cc2ccccc2)CC1)c1ccc(-c2ccon2)s1 [CBK062038],130.965
22,COc1ccc(C(=O)N[C@H]2C[C@H]3C(=O)Nc4ccccc4C(=O)N3C2)cc1 [CBK289355],127.573
23,CC(C)[C@@H](CO)Nc1nc(-c2ccccc2Cl)cn2ccnc12 [CBK037368],134.008
24,COc1ccc(-c2cnc(NS(C)(=O)=O)c(C(=O)Nc3cc(C)nn3C)c2)cc1 [CBK076528],119.485
25,Cn1c(CCNC(=O)C2CCCCC2)nc2cc([N+](=O)[O-])ccc21 [CBK268440],113.961
26,C=CCN1C(=O)CC2(C1=O)C(=O)N(CCCn1c(=O)n(C)c3ccccc31)c1ccc(Cl)cc12 (stereo not drawn) [CBK075411],144.276
